# Structures can show the parent of a compound that is named as a salt. This is one part of the list. Most entries show no effect beyond the scatter of the controls.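 Differential scanning fluorimetry gave melting temperatures in a one-replicate pilot screen of a library of approved drugs plus clinical or known-target compounds. Hits increasing melting point at least 2 °C were the strongest stabilizers, while negative shifts signify destabilization.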
# Test system: SARS-CoV-2 main protease (Mpro, nsp5)
# Assay: thermal shift ΔTm of Mpro relative to plate average Tm; higher = stronger thermal stabilization of Mpro (binding)
# Details: 10 µM; protein concentration 1 µM
row,Compound,thermal shift ΔTm of Mpro [°C]
1,CN1CCN(Cc2ccc(Nc3ncc(Cl)c(Nc4ccccc4S(=O)(=O)N(C)C)n3)cc2)CC1,-0.0207
2,COC(=O)c1ccc2c(c1)nc(NC(=O)c1ccccc1)n2CCCc1ccccc1,-0.48
3,O=S(=O)(F)Cc1ccccc1,0.0762
4,c1ccc(NCc2ccc(CNc3ccccn3)cc2)nc1,-0.0273
5,O=C([O-])c1ccccc1[O-].[Bi+3].[OH-] [Bismuth subsalicylat],0.109
6,Cc1nnc(C(=O)NC(C)(C)c2nc(C(=O)NCc3ccc(F)cc3)c(O)c(=O)n2C)o1 [Raltegravir (MK-0518)],0.194
7,C[C@@H]1C[C@H]2[C@@H]3C[C@H](F)C4=CC(=O)C=C[C@]4(C)[C@@]3(F)[C@@H](O)C[C@]2(C)[C@@]1(O)C(=O)CO [Flumethasone],0.0765
8,O=C(NC[C@H]1CN(c2ccc(N3CCOCC3=O)cc2)C(=O)O1)c1ccc(Cl)s1 [Rivaroxaban],-0.0798
9,O=C(O)Cc1ccc(-c2ccccc2)cc1 [4-Biphenylacetic acid],-0.0857
10,COc1cc(N2CCC(N3CCN(C)CC3)CC2)ccc1Nc1ncc(Cl)c(-c2c[nH]c3ccccc23)n1,0.298
11,Cc1cc2c(cc1CC(=O)c1sccc1S(=O)(=O)Nc1onc(C)c1Cl)OCO2 [Sitaxentan sodium],0.518
12,O=C(O)c1cn(-c2ccc(F)cc2)c2cc(N3CCNCC3)c(F)cc2c1=O [Sarafloxacin hydrochloride],0.0204
13,C[N+]1(C)CCC(OC(=O)C(O)(c2ccccc2)C2CCCC2)C1 (stereo not drawn) [Glycopyrrolate],0.158
14,O=C(O)c1ccc(S(=O)(=O)NC2CCCCC2)cc1,0.00265
15,N[C@@H](CCC(=O)O)C(=O)[O-].[Na+] [L-Glutamic acid monosodium salt],0.311
16,O=C(Nc1cccc(Cl)c1)c1ccccn1,0.00192
17,CN(C)C(=O)Nc1cccc(-c2ccc(N(C)C)cc2)c1 [Atglistatin],-0.314
18,Clc1ccc(CCC(Cn2ccnc2)Sc2c(Cl)cccc2Cl)cc1 (stereo not drawn) [Butoconazole nitrate],-0.285
19,C[C@@]1(C(=O)Nc2ccc(F)nc2)CCCN1c1nc(Nc2cc(C3CC3)n[nH]2)c2cccn2n1,-0.111
20,N#Cc1ccc(C(c2ccc(C#N)cc2)n2cncn2)cc1 [Letrozole],0.142
21,C=CC(=O)N1CCC(CNc2ncnc(N)c2-c2ccc(Oc3ccccc3)cc2)CC1 [evobrutinib],-0.066
22,Cn1c(=O)c2c(ncn2CC(=O)Nc2ccc(-c3ccccc3)nn2)n(C)c1=O,-0.0357
23,N=C(NCCCCCCNC(=N)NC(=N)Nc1ccc(Cl)cc1)NC(=N)Nc1ccc(Cl)cc1 [Chlorhexidine HCl],0.151
24,N=C(NCCCCCCNC(=N)NC(=N)Nc1ccc(Cl)cc1)NC(=N)Nc1ccc(Cl)cc1 [Chlorhexidine],0.0416
25,CN1CCN(C2=Nc3ccccc3Oc3ccc(Cl)cc32)CC1 [Loxapine Succinate],-0.19
26,CC(C)CC(N)=O [Isovaleramide],-0.126
27,Cc1cc2sc(NC(=O)Cc3ccccc3)nc2cc1Cl,0.0825

row,Compound,thermal shift ΔTm of Mpro [°C]
1,COc1ccc(-c2cccc(C(=O)N(C)C)c2)cc1S(=O)(=O)Nc1cccc(NCCNC(=O)c2cccc(C)c2)c1 [Orexin 2 Receptor Agonist],0.0075
2,CCOC(=O)[C@@H](N)Cc1ccc(-c2cc(O[C@H](c3ccc(Cl)cc3-n3ccc(C)n3)C(F)(F)F)nc(N)n2)cc1 [Telotristat Etiprate (LX 1606 Hippurate)],-0.291
3,CC(C)c1ccc(C(=O)N=C(N)N)cc1S(C)(=O)=O [Cariporide],-0.0319
4,NC(=O)c1ccc(N(C(N)=O)c2c(F)cccc2F)nc1-c1ccc(F)cc1F,-0.142
5,CC(=O)Oc1ccccc1C(=O)Nc1ncc([N+](=O)[O-])s1 [Nitazoxanide],0.101
6,CSc1nc(Nc2ccccc2)c2cccnc2n1,-0.00237
7,CCCCOCCOCCOCc1cc2c(cc1CCC)OCO2 [Piperonyl butoxide],0.0343
8,CCCc1cc(C)[nH]c(=O)c1CNC(=O)c1cc(-c2ccc(N3CCN(C(C)C)CC3)nc2)cc2c1cnn2C(C)C,-0.176
9,CCCCC(O)c1ccccc1 (stereo not drawn) [Fenipentol],0.138
10,CCOC(=O)c1cc(C#N)c(N2CCC(C(=O)NS(=O)(=O)Cc3ccccc3)CC2)nc1C,-0.0695
11,O=C(O)c1cn(C2CC2)c2cc(N3CCC(O)(COc4ccc(N5C[C@H](CO)OC5=O)cc4F)CC3)c(F)cc2c1=O [Cadazolid],-0.0744
12,COc1cc(N2CCOCC2)ccc1Nc1ncc(Cl)c(Nc2ccccc2NS(C)(=O)=O)n1,-0.0372
13,COc1ccc([C@@H]2CC(=O)c3c(O)cc(O)cc3O2)cc1O [Hesperetin],-0.25
14,CC(C)(C)C(=O)Nc1ccc2c(c1)C(=O)C(=O)c1ccccc1-2,-0.0951
15,Nc1c(CC(=O)O)cccc1C(=O)c1ccccc1 [Amfenac Sodium Monohydrate],-0.018
16,COc1cccc(C=Nc2cccc(C(=O)O)c2C)c1O,0.024
17,CC(C)C[C@H](NP(=O)(O)O[C@@H]1O[C@@H](C)[C@H](O)[C@@H](O)[C@H]1O)C(=O)N[C@@H](Cc1c[nH]c2ccccc12)C(=O)O [Phosphoramidon Disodium Salt],-0.0643
18,COc1ccc(-c2ccc3c(N4CCOC[C@@H]4C)nc(N4CCOC[C@@H]4C)nc3n2)cc1CO,-0.213
19,O=C(Nc1ccc(Cl)cc1)Nc1ccc(Cl)c(Cl)c1 [Triclocarban],0.467
20,CN[C@@H](C)C(=O)N[C@H](C(=O)N1CCC[C@H]1c1nc(C(=O)c2ccc(F)cc2)cs1)C1CCCCC1,-0.0848
21,O=C1c2c(O)cccc2Cc2cccc(O)c21 [Anthralin],0.0578
22,Cc1c(C(=O)Nc2ccc(Oc3ccnc4[nH]cc(-c5ccccc5)c34)c(F)c2)c(=O)n(-c2ccc(F)cc2)n1C,0.217
23,COc1nccc(-c2c(-c3ccc(F)cc3)ncn2C2CCC(O)CC2)n1 (stereo not drawn),-0.0675
24,COc1c(C)c(C(=O)c2ccc(N)c(C(=O)O)c2)n2ccccc12,-0.106
25,NCCc1c[nH]cn1 [Histamine 2HCl],-0.0472
26,OC[C@H](Cc1ccccc1)Nc1nc(Oc2ccc3c(c2)CCC3)nc2c1ncn2Cc1ccc(-c2ccccc2)cc1,0.00658

# Looked up one by one from the entries so far:
row,Compound,thermal shift ΔTm of Mpro [°C]
11,O=C(O)c1cn(C2CC2)c2cc(N3CCC(O)(COc4ccc(N5C[C@H](CO)OC5=O)cc4F)CC3)c(F)cc2c1=O [Cadazolid],-0.0744
15,Nc1c(CC(=O)O)cccc1C(=O)c1ccccc1 [Amfenac Sodium Monohydrate],-0.018
8,CCCc1cc(C)[nH]c(=O)c1CNC(=O)c1cc(-c2ccc(N3CCN(C(C)C)CC3)nc2)cc2c1cnn2C(C)C,-0.176

# Source: the supplement of paper PMC8166895
